At least one compound was matched to its structure with a doubt left.
Columns and labels:
[1] = system: Escherichia coli, Pseudomonas aeruginosa, Staphylococcus aureus, Aspergillus niger, Candida albicans; experiment: Microbial challenge (preservative effectiveness) test USP <51>, overall result; assay type: cell-based
[2] = Kinetic stability study with selected sodium oxybate formulations; assay type: physicochemical; conditions: formulations tested thus far

For O=C(O)CCCO [GHB, gamma-hydroxybutyrate], the “resistance to microbial challenge” value ([1]; 150 mg/ml GHB at pH 3, 5, 7, and 9.0, HCl as pH adjusting agent) was “unacceptably low resistance to microbial challenge”, the “resistance to microbial challenge” value ([1]; 150 mg/ml GHB at pH 10.3 without a pH adjusting agent) was “unacceptably resistant to microbial challenge” and the microbial preservativeness ([1]; 500 mg/ml GHB at pH 9, pH adjusted with HCl) was “Borderline acceptable microbial preservativeness”. The “effectiveness in microbial challenge test” value ([1]; 500 mg/ml at pH 6.0 or 7.5 (malic acid or HCl) and 500 mg/ml at pH 9.0 (HCl)) was “very effective in a microbial challenge test”, the “resistance to microbial growth” value ([1]; about 500 mg/ml GHB, between about pH 5 and pH 9) was “resistant to microbial growth” and the “resistance to microbial challenge” value ([1]; at or below 150 mg/ml, about pH 3 to about pH 9) was “poorly resistant to microbial challenge”. For the same compound, the “pH at which GBL begins to form” value [2] was no more than 6.

From patent US20130143965A1, “MICROBI[…] AND STABLE SOLUTIONS OF GAMMA-HYDRO[…] FOR THE TREATMENT OF NARCOLEPSY” (Jazz Pharmaceuticals, Inc., priority 1998, published 2013)
